Results reported in article PMC5654745.
These are yes or no findings as the source states them, for the method shown. In cells and extracts the contact can be indirect. Some binding calls cover weakened binding; strength is not graded here. Where a sequence is shown, tags or fusion partners need not be part of it.

B1: Swd1 (protein, UniProt P39706 1-426)
chain: MNILLQDPFAVLKEHPEKLTHTIENPLRTECLQFSPCGDYLALGCANGALVIYDMDTFRPICVPGNMLGAHVRPITSIAWSPDGRLLLTSSRDWSIKLWDLSKPSKPLKEIRFDSPIWGCQWLDAKRRLCVATIFEESDAYVIDFSNDPVASLLSKSDEKQLSSTPDHGYVLVCTVHTKHPNIIIVGTSKGWLDFYKFHSLYQTECIHSLKITSSNIKHLIVSQNGERLAINCSDRTIRQYEISIDDENSAVELTLEHKYQDVINKLQWNCILFSNNTAEYLVASTHGSSAHELYIWETTSGTLVRVLEGAEEELIDINWDFYSMSIVSNGFESGNVYVWSVVIPPKWSALAPDFEEVEENVDYLEKEDEFDEVDEAEQQQGLEQEEEIAIDLRTREQYDVRGNNLLVERFTIPTDYTRIIKMQSS
B2: Sdc1 (protein, UniProt Q03323 1-175)
chain: MNESENSPQHNEVTVPMVEDTSSNADIPMEQIQREDNKNYDKHDNECFDMNGNHNNNSDNLQFDSVPSSATKDLKNIKSVTNQNVKIEESSSTNSVIEESSEPKISKLENVNLAATVGGSQTRKYLNTNVTPHLLAGMRLIAVQQPEDPLRVLGEYLIEQSNILKSGEKESNASK
B3: Swd3 (protein, UniProt P38123 1-315)
chain: MFQFVTPVGTQNGLKATCAKISPDGQFLAITQGLNILIYDINRRTVSQTLVTSHARPFSELCWSPDGQCIATASDDFSVEIIHLSYGLLHTFIGHTAPVISLTFNRKGNLLFTSSMDESIKIWDTLNGSLMKTISAHSEAVVSVDVPMNDSSILSSGSYDGLIRIFDAETGHCLKTLTYDKDWKRENGVVPISQVKFSENARYLLVKSLDGVVKIWDCIGGCVVRTFQVQPLEKGVLHHSCGMDFLNPEDGSTPLVISGYENGDIYCWNSDTKSLLQLLDGSLYHHSSPVMSIHCFGNIMCSLALNGDCCLWRWV
B4: Bre2 (protein, UniProt P43132 1-505)
chain: MKLGIIPYQEGTDIVYKNALQGQQEGKRPNLPQMEATHQIKSSVQGTSYEFVRTEDIPLNRRHFVYRPCSANPFFTILGYGCTEYPFDHSGMSVMDRSEGLSISRDGNDLVSVPDQYGWRTARSDVCIKEGMTYWEVEVIRGGNKKFADGVNNKENADDSVDEVQSGIYEKMHKQVNDTPHLRFGVCRREASLEAPVGFDVYGYGIRDISLESIHEGKLNCVLENGSPLKEGDKIGFLLSLPSIHTQIKQAKEFTKRRIFALNSHMDTMNEPWREDAENGPSRKKLKQETTNKEFQRALLEDIEYNDVVRDQIAIRYKNQLFFEATDYVKTTKPEYYSSDKRERQDYYQLEDSYLAIFQNGKYLGKAFENLKPLLPPFSELQYNEKFYLGYWQHGEARDESNDKNTTSAKKKKQQQKKKKGLILRNKYVNNNKLGYYPTISCFNGGTARIISEEDKLEYLDQIRSAYCVDGNSKVNTLDTLYKEQIAEDIVWDIIDELEQIALQQ
B5: Spp1 (protein, UniProt Q03012 1-353)
chain: MSLPQWCPPHSTLKRNPTTGEDVYCICKRPDYGELMVGCDGCDDWFHFTCLHIPEQFKDLVFSFYCPYCQAGITGKNKDAIINGEGSLPKTLWKRKCRISDCYKPCLQDSKYCSEEHGREFVNDIWSRLKTDEDRAVVKKMVEQTGHIDKFKKFGQLDFIDNNIVVKTDDEKEIFDQIVVRDMTLKTLEDDLQEVQEISLPLFKKKLELLEVYLGWLDNVYTEMRKLDDDAASHVECGKEDSKGTKRKKKKNSSRSRARKNICGYCSTYERIPCSVEEFVRDFGSNEEATKIHEVCTKWKCNRHLDWVSTNQEQYLQQIDSLESMQERLQHLIQARKKQLNIQYYEEILRRGL
B6: Swd2 (protein, UniProt P36104 1-329)
chain: MTTVSINKPNLLKFKHVKSFQPQEKDCGPVTSLNFDDNGQFLLTSSSNDTMQLYSATNCKFLDTIASKKYGCHSAIFTHAQNECIYSSTMKNFDIKYLNLETNQYLRYFSGHGALVNDLKMNPVNDTFLSSSYDESVRLWDLKISKPQVIIPSLVPNCIAYDPSGLVFALGNPENFEIGLYNLKKIQEGPFLIIKINDATFSQWNKLEFSNNGKYLLVGSSIGKHLIFDAFTGQQLFELIGTRAFPMREFLDSGSACFTPDGEFVLGTDYDGRIAIWNHSDSISNKVLRPQGFIPCVSHETCPRSIAFNPKYSMFVTADETVDFYVYDE
B7: Shg1 (protein, UniProt P38337 1-142)
chain: MAYNQEDSKRLSDKYKKEGHFDKLKREILSNPWNNTEENSESFEQALRKRVASTVKEMVNEDEELIFKNRGLTSALIESQLVKDNYLKLGSKMEGDNGDGEKKFDLDVYVRSKLQDPKLLEMIKGQLQETLNSYEEEANGST

What follows are binders tested against T1, FLAG-Set1 C762 fragment (S. cerevisiae) (UniProt P38827) (assay: co-IP; FLAG-Set1 (full-length or fragment) co-expressed with untagged Set1C subunits in Sf9 cells by baculovirus co-infection; complexes affinity purified on M2 (anti-FLAG) agarose; SDS-PAGE and Coomassie blue staining).
T1 sequence: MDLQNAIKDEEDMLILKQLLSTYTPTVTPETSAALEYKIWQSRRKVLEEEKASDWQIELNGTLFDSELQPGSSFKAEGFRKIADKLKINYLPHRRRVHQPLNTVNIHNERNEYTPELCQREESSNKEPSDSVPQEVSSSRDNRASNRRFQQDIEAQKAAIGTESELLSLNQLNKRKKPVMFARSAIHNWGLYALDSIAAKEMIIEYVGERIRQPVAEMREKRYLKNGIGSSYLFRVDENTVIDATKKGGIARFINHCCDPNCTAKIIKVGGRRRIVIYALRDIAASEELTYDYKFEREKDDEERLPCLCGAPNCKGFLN
With B1 the binding was “binds”.
For B2, the binding was “binds”.
For B3, the binding was “binds”.
With B4 the binding was “binds”.
For B5, the binding was “binds”.

What follows are binders tested against T2, FLAG-Set1 (full-length) (S. cerevisiae) (UniProt P38827) in the same assay as above.
T2 sequence: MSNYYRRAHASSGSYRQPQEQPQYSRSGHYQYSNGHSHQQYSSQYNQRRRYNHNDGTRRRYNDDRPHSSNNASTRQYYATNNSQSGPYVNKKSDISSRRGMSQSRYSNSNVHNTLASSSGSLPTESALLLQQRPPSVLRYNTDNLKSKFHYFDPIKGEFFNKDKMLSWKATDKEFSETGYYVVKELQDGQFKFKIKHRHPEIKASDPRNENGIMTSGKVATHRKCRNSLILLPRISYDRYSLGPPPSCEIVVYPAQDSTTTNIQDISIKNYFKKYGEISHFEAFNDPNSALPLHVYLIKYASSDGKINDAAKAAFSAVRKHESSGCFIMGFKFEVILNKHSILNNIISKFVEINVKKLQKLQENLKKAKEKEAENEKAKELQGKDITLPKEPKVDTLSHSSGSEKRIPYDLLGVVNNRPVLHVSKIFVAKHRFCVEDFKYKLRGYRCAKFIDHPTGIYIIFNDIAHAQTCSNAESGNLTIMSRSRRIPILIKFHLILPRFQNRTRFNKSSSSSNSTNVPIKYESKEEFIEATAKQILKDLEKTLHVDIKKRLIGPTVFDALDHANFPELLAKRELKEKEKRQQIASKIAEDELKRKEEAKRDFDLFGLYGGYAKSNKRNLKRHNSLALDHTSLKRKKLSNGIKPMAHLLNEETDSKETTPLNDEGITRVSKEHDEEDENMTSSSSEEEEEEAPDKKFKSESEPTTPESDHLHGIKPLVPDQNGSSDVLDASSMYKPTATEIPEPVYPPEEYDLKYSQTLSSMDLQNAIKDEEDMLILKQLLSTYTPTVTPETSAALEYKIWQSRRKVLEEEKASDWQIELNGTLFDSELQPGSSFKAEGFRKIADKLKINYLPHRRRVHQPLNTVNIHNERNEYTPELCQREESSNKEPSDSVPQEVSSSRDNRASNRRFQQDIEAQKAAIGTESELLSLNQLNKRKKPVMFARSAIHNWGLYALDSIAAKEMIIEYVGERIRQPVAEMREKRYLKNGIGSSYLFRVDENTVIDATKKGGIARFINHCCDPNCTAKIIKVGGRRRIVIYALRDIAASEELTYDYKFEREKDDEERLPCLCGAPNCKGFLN
With B1 the binding was “binds”.
B2 was tested, and the binding was “binds”.
With B3 the binding was “binds”.
In the case of B6, the binding is reported as “binds”.
For B4, the binding was “binds”.
For B5, the binding was “binds”.
With B7 the binding was “binds”.
